Measured values taken from paper PMC9113893, “Carbon Material Hybrid Construction on an Aptasensor for Monitoring Surgical Tumors”.

Molecular target: T1, carcinoembryonic antigen (CEA) (human) (UniProt P06731)
T1 sequence (looked up, limits assumed): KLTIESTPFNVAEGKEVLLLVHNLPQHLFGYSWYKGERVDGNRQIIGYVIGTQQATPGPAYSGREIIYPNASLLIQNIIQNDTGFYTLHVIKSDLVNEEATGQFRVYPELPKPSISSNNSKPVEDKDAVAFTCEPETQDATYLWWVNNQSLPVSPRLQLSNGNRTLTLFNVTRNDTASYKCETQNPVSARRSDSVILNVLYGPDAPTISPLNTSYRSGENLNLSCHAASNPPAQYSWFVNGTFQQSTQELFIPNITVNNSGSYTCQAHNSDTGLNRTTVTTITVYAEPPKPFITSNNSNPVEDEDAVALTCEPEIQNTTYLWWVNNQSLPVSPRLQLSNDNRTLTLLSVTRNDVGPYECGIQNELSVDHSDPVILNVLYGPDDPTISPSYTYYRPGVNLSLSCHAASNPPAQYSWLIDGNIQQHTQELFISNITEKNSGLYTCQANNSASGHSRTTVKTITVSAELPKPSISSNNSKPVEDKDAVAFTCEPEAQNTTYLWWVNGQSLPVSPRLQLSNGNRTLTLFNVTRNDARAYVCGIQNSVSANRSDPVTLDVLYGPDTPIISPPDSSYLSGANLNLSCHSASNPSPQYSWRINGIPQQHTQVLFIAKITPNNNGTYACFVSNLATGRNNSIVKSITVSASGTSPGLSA
Test: electrochemical aptasensor (interdigitated electrode, sandwich)
Settings: 1 uM detection aptamer added to CEA held by capture aptamer N1, no separate read-out for N2; PBS or 1:100 diluted human serum; graphene-modified IDE blocked with 1% BSA; salt and temperature not stated; commercial protein; single-stranded DNA

Q: Does “AGGGGGTGAAGGGATACCC [anti-CEA detection aptamer (detection probe)]” bind?
A: binds

Construct, isoform or probe ends are uncertain for at least one entry. At least one verdict was read from the data and is not stated in words by the source. Tags and fusion partners may be left off the protein sequences shown.
